From article PMC11085213, “Plastid Molecular Chaperone HSP90C Interacts with the SecA1 Subunit of Sec Translocase for Thylakoid Protein Transport” (Plants, 2024)
These are yes or no findings as the source states them, for the method shown. Binding seen in cells or lysates may run through a third protein. Binding can be weak; no strength is given.

By UniProt entry, the sequences of proteins in these tests, tags left out. Where a name states a change or a piece, a line headed by the entry shows the natural chain unless it says otherwise. Residues count along the entry.
UniProt Q9SYI0, residues 73-1022: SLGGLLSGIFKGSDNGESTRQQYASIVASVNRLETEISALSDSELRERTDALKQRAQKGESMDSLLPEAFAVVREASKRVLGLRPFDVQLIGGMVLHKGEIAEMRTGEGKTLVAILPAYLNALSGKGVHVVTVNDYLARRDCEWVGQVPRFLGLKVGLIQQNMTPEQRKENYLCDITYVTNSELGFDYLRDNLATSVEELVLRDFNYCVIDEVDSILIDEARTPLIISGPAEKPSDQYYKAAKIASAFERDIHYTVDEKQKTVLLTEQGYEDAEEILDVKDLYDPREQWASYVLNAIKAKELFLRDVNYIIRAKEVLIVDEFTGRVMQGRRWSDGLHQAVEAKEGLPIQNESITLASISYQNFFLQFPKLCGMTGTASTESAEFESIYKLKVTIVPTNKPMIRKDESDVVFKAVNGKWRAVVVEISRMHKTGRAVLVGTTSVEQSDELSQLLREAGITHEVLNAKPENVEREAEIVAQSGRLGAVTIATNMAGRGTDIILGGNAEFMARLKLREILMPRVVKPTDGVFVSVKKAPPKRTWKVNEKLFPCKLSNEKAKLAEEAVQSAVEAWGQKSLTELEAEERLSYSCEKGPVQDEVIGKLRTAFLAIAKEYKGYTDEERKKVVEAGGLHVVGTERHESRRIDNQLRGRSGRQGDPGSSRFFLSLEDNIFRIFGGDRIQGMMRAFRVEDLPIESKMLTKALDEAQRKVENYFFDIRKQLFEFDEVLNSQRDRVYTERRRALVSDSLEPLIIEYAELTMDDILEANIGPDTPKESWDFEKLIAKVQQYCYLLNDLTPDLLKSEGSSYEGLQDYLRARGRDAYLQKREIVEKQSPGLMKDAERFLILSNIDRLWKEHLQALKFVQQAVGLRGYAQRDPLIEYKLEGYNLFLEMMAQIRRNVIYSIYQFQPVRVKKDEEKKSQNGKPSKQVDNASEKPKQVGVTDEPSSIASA
UniProt P23321: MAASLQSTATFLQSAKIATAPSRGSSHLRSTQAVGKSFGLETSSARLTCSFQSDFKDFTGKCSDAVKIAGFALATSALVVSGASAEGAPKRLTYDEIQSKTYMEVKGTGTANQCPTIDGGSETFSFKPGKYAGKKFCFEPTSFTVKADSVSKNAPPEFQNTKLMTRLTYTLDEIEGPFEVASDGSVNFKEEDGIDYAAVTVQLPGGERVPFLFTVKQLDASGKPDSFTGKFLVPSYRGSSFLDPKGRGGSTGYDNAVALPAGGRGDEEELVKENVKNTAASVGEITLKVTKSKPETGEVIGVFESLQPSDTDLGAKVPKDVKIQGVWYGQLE

Target: SecA1-n/cYFP (Arabidopsis) (UniProt Q9SYI0)
Assay: split reporter; YFP N- and C-half fusions transiently co-expressed in N. benthamiana mesophyll cells, confocal imaging of chloroplasts after 48 h; some samples treated with 10 mM sodium azide or 30 μM geldanamycin before imaging

For “PsbO1^1–332-n/cYFP (from UniProt P23321)”, the binding was “binds”.
